The target of the assay is LINE1 reverse transcriptase (Homo sapiens, UniProt O00370). Kind of assay: Transient artificial-intron Cis LINE1 reporter assay. Type of assay: cell-based. As to conditions: read-out: IC50 for inhibiting FLuc luminescence; HEK 293 cells; ratio FLuc/RLuc reports LINE1 activity; tested up to 100 μM. Here is the method: Intron-disrupted Firefly luciferase (FLuc) expression cassettes were generated as described by Xie, Y. et al. “Characterization of L1 retrotransposition with high-throughput dual-luciferase assays,” Nucleic Acid Res. (2011) Vol. 39, No. 3, e16. In addition, the plasmid contained an intact Renilla luciferase (RLuc) expression cassette on the vector backbone, in order to normalize transfection efficiency and measure potential cell toxicity.
HEK 293 cells were seeded in 96-well plates at 1,000 cells/well in 55 μL and grown for 24 hours. Cells were transfected with FuGeneHD (Promega) following the manufacturer's protocol. Each well received 0.133 ng plasmid, 0.4 μL FuGeneHD reagent, and 4.5 μL GlutaMAX-I-supplemented Opti-MEM I reduced-serum medium (Invitrogen). Cells were simultaneously treated with test compound serially diluted starting at 100 μM in a 3-fold dilution dose response.
Luminescence was measured using the Dual-Glo Luciferase Assay System (Promega) following the manufacturer's instructions. The ratio between FLuc and RLuc gene expression was used to report LINE1 activity.

The match of structure and compound is tentative.

`C#C[C@]1(CO[P@@](=O)(N[C@@H](C)C(=O)OC(C)C)Oc2ccccc2)O[C@@H](n2cnc3c(N)nc(Cl)nc32)C[C@@H]1O` [Compound I-1, Isopropyl ((S)-(((2R,3S,5R)-5-(6-amino-2-chloro-9H-purin-9-yl)-2-ethynyl-3-hydroxytetrahydrofuran-2-yl)methoxy)(phenoxy)phosphoryl)-L-alaninate]: the IC50 was determined as 0.02 µM.

For the origin of these results see patent publication US20240366649A1, “4-ETHYNYL-3-HYDROXY-TETRAHYDROFURANYL-ADENINE PHOSPHORAMIDATES AND RELATED COMPOUNDS AND THEIR USE IN TREATING MEDICAL CONDITIONS” (ROME THERAPEUTICS, INC., priority 2021, published 2024).
